# In PubChem BioAssay AID602313 (National Center for Advancing Translational Sciences (NCATS), 2012):
# The campaign covered roughly 390,000 compounds. About 760 (0.19%) were called active. Inconclusive means that the source gave no clear call. Such entries were picked first, then a sample of the others. Calls follow the shape of the dose curve; as a rule, active = well fitted inhibition curve with a large enough effect; inconclusive = small, poorly fitted or top-dose-only effect; inactive = flat fitted curve, though single readings scatter. Where the call is inconclusive, the potency comes from a doubtful curve fit.
# Assay: qHTS for Inhibitors of Vif-A3F Interactions: qHTS; also: nearly all actives have a fitted effect of over 65% in size; as to activity, negative = active: % of control where 0% means no effect
# Settings: HeLa A3F-eYFP + Vif (tagged APOBEC3F with the HIV-1 protein that degrades it), YFP fluorescence increase; series mostly up to 46.1 µM; activity, negative = active: at the top concentration
# Method in brief: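 HeLa cells stably expressing Vif plus C-terminally eYFP-tagged A3F were seeded, incubated overnight at 37 deg C, dosed with compound, incubated overnight again at 37 deg C. Yellow fluorescence (Ex 488/Em 500-530) reported blocked Vif-mediated A3F-eYFP degradation.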
# Potency is read from the fitted curve at half-maximal effect.
SMILES,Potency,"activity, negative = active"
CC(=O)/C(N=Nc1cc(C)ccc1O)=C(\C)O,active: 25.1 µM,
COc1ccc(SCc2cc(=O)c3cc(Cl)ccc3[nH]2)cc1,,inactive: 2.36%
Cc1nc(-c2ccc(F)cc2)c(CC(=O)N(C)CC(=O)Nc2ccc(Br)cc2C)s1,"inconclusive: 35.5 µM [inhibitor, single point]",
Cc1cc(C)cc(OCCNC(=O)c2ccc(Br)cc2)c1,"inconclusive: 25.1 µM [inhibitor, single point]",
CC(NC(=O)c1cccnc1)C(=O)O (centres undefined),,inactive: -8.6%
O=S(=O)(c1ccc(NC(=S)N2CCOCC2)cc1)N1CCCCC1,,inactive: 0.0629%
CCCC(=O)Nc1ccc(C(=O)Nc2nc(CC(=O)OCC)cs2)cc1,,inactive: -1.45%
Cc1ccc(CNC(=O)c2ccc(Cn3c(=O)c4ccccc4n(CC(=O)Nc4ccc(C)cc4C)c3=O)cc2)cc1,"inconclusive: 14.1 µM [inhibitor, single point]",
COCCN(C(=O)Nc1ccccc1OC)c1nc2ccccc2s1,"inconclusive: 35.5 µM [inhibitor, single point]",
CC1CC(C)(C)NC(=S)N1CCCC(=O)Nc1ccc(Br)cc1 (centres undefined),"inconclusive: 2.82 µM [inhibitor, full curve, poor fit]",
CCCCC1=CC2=C(c3ccco3)C(=O)C(C)(OC(=O)c3ccc(OC)cc3)C(=O)C2=CN1CC(C)C (centres undefined),"inconclusive: 22.4 µM [inhibitor, single point]",
CC(C)(C)Nc1nc(N)nc(Cl)n1,"inconclusive: 10 µM [inhibitor, partial curve, poor fit]",
Cc1ccc(C(C)C)cc1OCC(=O)N/N=C/c1ccc2c(c1)OCCO2,"inconclusive: 0.562 µM [inhibitor, full curve, poor fit]",
Cc1ccc(NC(=O)/C(C#N)=C/c2ccc(Sc3nc(C)cc(C)n3)o2)cc1,"inconclusive: 35.5 µM [inhibitor, single point]",
Cc1nc(NC(=O)CSc2ccc(-c3nc4ccccc4[nH]3)cn2)sc1C,"inconclusive: 35.5 µM [inhibitor, single point]",
CCOC(=O)c1ccc(N=NN(C)C)cc1,"inconclusive: 0.562 µM [inhibitor, partial curve, poor fit]",
N#Cc1cc2cc3c(cc2nc1SCC(=O)N1CCOCC1)OCO3,"inconclusive: 17.8 µM [inhibitor, single point]",
CCOc1ccc(S(=O)(=O)Nc2cc(SCC(=O)O)c(O)c3ccccc23)cc1,"inconclusive: 22.4 µM [inhibitor, single point]",
Cc1ccc2nc(N(Cc3cccnc3)C(=O)COc3ccccc3)sc2c1,"inconclusive: 15.8 µM [inhibitor, single point]",
O=C(Nc1cccc2ccccc12)c1ccc([N+](=O)[O-])cc1,"inconclusive: 35.5 µM [inhibitor, single point]",
CSc1c(C#N)c(N)nc2sc(C(=O)c3ccc(Cl)c(Cl)c3)c(N)c12,"inconclusive: 5.62 µM [inhibitor, partial curve, poor fit]",
CCCNC(=O)CCn1c(=S)oc2ccccc21,,inactive: 3.82%

# Structural class, those above containing a Cl atom (3)
SMILES,Potency,"activity, negative = active"
COc1ccc(SCc2cc(=O)c3cc(Cl)ccc3[nH]2)cc1,,inactive: 2.36%
CC(C)(C)Nc1nc(N)nc(Cl)n1,"inconclusive: 10 µM [inhibitor, partial curve, poor fit]",
CSc1c(C#N)c(N)nc2sc(C(=O)c3ccc(Cl)c(Cl)c3)c(N)c12,"inconclusive: 5.62 µM [inhibitor, partial curve, poor fit]",

# Next part

SMILES,Potency,"activity, negative = active"
Cc1ccc(Nc2c(-c3c[nH]c4ccccc34)nc3cc(C)ccn23)cc1,"inconclusive: 15.8 µM [inhibitor, partial curve, poor fit]",
O=C1N(Cc2cccc(Cl)c2)C[C@@H]2C[C@@H](c3c[nH]c4ccccc34)N3CCC[C@@]123,"inconclusive: 35.5 µM [inhibitor, single point]",
O=C(c1ccc(F)cc1)N(C(=O)c1ccc(F)cc1)c1ncccn1,"inconclusive: 6.31 µM [inhibitor, full curve]",
Cn1c(C=O)c(C#Cc2ccccc2)c2ccccc21,,inactive: -7.15%
Cc1ccc(-c2ccc(/C=N/NC(=O)Cc3nnc(N)s3)o2)cc1Cl,"inconclusive: 22.4 µM [inhibitor, single point]",
COc1ccc(-n2ccn(CC(=O)NCCc3ccccc3)c(=O)c2=O)cc1OC,,inactive: 1.57%
CCOC(=O)N1CCN(S(=O)(=O)c2ccc(C(=O)Nc3sc4c(c3C(=O)OC)CCN(C)C4)cc2)CC1,"inconclusive: 35.5 µM [inhibitor, single point]",
COc1cccc(C2c3cc4c(cc3OC(NNC(N)=O)C2C)OCO4)c1O (centres undefined),,inactive: -9.41%
O=C1CC2(CCN(C(=O)c3cccc(Cl)c3)CC2)Oc2ccccc21,"inconclusive: 2.51 µM [inhibitor, partial curve, poor fit]",
COc1cc(C(C)=O)ccc1COc1ccc(C(=O)OC(C)C(=O)NC(N)=O)cc1OC (centres undefined),"inconclusive: 11.2 µM [inhibitor, partial curve, poor fit]",
CC(C)(C)C(=O)c1sc(Nc2ccccc2)nc1N,,inactive: -9.36%
CC(=O)NC(c1ccc(C)cc1)c1cc([N+](=O)[O-])c2cccnc2c1O (centres undefined),,inactive: -22.2%
O=C(CCS(=O)(=O)c1ccccc1)Nc1nc2ccc(F)cc2s1,"inconclusive: 35.5 µM [inhibitor, single point]",
O=C(NCCNC(=O)c1ccccn1)c1ccc(F)cc1,"inconclusive: 3.55 µM [inhibitor, partial curve, poor fit]",
CCc1ccc(C(=O)NNc2ccc(F)cc2)cc1,,inactive: 13.3%
CC1CCCCN1C(=O)Cn1c(SCC(=O)N(C)c2ccccc2)nc2ccccc21 (centres undefined),,inactive: -6.52%
COc1cc(OC)cc(-c2nnc(NC(=O)CCS(=O)(=O)c3ccccc3)o2)c1,"inconclusive: 2.51 µM [inhibitor, partial curve, poor fit]",
O=C(c1ccccc1Br)N1CCN(Cc2ccc3c(c2)OCO3)CC1,,inactive: -3.24%
Cn1c(C2CCCCC2)nc2cc(N)ccc21,"inconclusive: 25.1 µM [inhibitor, single point]",
CC1CC2=C(NC(=S)NC2c2ccccc2F)/C(=C/c2ccccc2F)C1 (centres undefined),,inactive: 7.15%
CC1=C(C(=O)OCC(C)C)C(c2cccs2)NC(=S)N1 (centres undefined),"inconclusive: 22.4 µM [inhibitor, partial curve, poor fit]",
N#CC1=C(N)SC(N)=C(C#N)C1Cc1ccccc1,"inconclusive: 15.8 µM [inhibitor, partial curve, poor fit]",
